Results as given in publication PMC7374751.

By UniProt entry, the sequences of proteins in these tests, tags left out. Where a name states a change or a piece, a line headed by the entry shows the natural chain unless it says otherwise.
UniProt P03956: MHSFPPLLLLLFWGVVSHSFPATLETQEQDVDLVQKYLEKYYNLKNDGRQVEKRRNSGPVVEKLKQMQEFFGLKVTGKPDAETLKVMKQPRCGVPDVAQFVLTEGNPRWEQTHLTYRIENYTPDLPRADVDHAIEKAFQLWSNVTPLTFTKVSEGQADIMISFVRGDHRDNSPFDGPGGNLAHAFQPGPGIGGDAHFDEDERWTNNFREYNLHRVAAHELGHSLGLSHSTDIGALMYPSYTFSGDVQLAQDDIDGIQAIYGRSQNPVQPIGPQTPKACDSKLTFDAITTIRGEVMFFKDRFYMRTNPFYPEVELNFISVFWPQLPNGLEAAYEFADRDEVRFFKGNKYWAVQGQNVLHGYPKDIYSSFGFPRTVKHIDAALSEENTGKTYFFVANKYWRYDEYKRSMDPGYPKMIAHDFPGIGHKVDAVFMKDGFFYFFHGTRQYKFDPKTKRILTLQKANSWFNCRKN
UniProt O14672: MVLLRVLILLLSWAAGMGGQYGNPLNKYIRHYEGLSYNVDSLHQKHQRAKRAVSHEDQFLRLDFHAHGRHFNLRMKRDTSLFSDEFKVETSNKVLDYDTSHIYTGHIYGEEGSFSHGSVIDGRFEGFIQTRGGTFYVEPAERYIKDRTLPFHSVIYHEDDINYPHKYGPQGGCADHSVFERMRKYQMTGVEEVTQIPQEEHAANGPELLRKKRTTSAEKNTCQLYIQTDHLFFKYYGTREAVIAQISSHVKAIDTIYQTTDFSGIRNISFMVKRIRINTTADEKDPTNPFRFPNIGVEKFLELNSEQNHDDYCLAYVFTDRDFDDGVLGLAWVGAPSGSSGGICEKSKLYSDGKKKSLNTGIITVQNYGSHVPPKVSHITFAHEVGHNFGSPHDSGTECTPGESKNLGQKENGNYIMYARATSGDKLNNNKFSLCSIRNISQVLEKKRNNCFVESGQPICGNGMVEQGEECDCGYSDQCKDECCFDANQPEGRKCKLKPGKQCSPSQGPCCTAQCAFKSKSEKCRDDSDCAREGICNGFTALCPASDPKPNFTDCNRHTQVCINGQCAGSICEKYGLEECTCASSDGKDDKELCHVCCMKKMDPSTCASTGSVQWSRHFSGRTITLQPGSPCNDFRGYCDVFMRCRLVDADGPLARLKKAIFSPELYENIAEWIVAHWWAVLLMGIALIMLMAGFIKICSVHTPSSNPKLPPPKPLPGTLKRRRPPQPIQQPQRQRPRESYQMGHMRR
UniProt O75173: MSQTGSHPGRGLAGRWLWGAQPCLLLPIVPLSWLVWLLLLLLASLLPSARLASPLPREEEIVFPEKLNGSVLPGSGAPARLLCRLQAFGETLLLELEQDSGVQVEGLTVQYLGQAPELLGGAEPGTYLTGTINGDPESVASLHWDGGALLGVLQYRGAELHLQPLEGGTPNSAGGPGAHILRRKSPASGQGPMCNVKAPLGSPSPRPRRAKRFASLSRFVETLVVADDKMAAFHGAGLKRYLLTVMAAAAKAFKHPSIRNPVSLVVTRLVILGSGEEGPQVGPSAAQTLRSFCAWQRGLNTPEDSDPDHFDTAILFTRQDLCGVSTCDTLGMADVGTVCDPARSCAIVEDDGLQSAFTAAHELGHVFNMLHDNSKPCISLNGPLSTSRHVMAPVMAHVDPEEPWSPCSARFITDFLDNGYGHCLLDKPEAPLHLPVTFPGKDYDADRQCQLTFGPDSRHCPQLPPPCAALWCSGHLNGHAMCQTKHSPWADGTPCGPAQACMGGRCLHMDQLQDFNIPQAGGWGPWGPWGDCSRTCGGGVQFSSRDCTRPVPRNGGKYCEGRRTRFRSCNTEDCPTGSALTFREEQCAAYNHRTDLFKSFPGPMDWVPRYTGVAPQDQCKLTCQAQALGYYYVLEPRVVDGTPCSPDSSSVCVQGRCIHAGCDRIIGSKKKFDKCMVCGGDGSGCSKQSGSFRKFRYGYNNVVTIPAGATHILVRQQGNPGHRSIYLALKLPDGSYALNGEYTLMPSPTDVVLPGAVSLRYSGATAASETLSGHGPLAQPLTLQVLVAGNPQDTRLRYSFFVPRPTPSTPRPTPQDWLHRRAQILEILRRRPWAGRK
UniProt Q9UNA0: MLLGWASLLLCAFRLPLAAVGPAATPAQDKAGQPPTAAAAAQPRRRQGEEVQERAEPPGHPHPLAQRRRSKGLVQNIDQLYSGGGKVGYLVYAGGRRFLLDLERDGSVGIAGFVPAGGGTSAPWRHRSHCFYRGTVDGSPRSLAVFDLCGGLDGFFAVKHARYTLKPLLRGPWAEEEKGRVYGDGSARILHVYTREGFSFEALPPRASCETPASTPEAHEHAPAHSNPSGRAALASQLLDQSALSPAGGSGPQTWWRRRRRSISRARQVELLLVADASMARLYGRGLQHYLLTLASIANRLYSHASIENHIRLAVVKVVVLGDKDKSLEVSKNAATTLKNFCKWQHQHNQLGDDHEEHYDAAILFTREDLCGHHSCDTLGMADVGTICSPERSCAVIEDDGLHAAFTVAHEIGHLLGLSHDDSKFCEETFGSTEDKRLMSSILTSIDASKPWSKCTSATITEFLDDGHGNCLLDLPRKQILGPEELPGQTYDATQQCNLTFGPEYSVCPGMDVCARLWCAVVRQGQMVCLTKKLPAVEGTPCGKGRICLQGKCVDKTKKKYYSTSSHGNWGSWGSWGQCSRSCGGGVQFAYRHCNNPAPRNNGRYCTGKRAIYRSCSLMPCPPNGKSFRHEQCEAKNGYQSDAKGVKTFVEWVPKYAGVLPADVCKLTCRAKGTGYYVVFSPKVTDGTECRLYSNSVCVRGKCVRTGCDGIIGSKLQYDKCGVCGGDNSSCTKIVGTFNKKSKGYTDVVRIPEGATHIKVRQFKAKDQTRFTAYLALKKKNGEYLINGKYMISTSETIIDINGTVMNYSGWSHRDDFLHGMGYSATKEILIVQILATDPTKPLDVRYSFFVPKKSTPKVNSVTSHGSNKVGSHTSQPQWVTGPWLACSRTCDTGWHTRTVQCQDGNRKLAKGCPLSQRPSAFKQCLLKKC

What was measured:
Assay in all cases: complex pre-formed in solution, read by SPR on immobilised LRP-1; equimolar enzyme and TIMP (5-80 nM) incubated 1 h at 37 °C before injection over LRP-1; the enzyme-TIMP pair is told by the changed binding of the mixture; both purified
[1] = target: catalytic domain of human MMP-1 (MMP-1ΔC) (human) (UniProt P03956)
[2] = target: ADAM10 ectodomain (UniProt O14672)
[3] = target: FLAG-tagged ADAMTS-4 lacking the C-terminal spacer domain (ADAMTS4-2) (UniProt O75173)
[4] = target: full length MMP-1 (human)
[5] = target: FLAG-tagged ADAMTS-5 lacking the C-terminal thrombospondin domain (ADAMTS5-2) (UniProt Q9UNA0)
[6] = target: ADAMTS5-4, truncated FLAG-tagged ADAMTS-5

Measured: binding

B1: FLAG-tagged TIMP-3 (protein, UniProt P35625 24-211)
chain: CTCSPSHPQDAFCNSDIVIRAKVVGKKLVKEGPFGTLVYTIKQMKMYRGFTKMPHVQYIHTEASESLCGLKLEVNKYQYLLTGRVYDGKMYTGLCNFVERWDQLTLSQRKGLNYRYHLGCNCKIKSCYYLPCFVTSKNECLWTDMLSNFGYPGYQSKHYACIRQKGGYCSWYRGWAPPDKSIINATDP
binds: [1] | [2] | [3] | [4] | [5] | [6]

Results are given in words; binding and its absence hold for the method and conditions named. Binding can be weak; no strength is given. Where a sequence is shown, tags or fusion partners need not be part of it.
